Assay results as given in paper PMC3694860.
Where two headings read alike, the source gives them in different places. No constants are given. Whether binding was seen depends on the method and setting. In cells and extracts the contact can be indirect. Some entries that bind do so weakly or less than the wild type.

What was measured:
[1] = target: T1, NS1-binding protein (NS1-BP) (human (endogenous in HeLa and A549)) (UniProt Q9Y6Y0)
T1 sequence: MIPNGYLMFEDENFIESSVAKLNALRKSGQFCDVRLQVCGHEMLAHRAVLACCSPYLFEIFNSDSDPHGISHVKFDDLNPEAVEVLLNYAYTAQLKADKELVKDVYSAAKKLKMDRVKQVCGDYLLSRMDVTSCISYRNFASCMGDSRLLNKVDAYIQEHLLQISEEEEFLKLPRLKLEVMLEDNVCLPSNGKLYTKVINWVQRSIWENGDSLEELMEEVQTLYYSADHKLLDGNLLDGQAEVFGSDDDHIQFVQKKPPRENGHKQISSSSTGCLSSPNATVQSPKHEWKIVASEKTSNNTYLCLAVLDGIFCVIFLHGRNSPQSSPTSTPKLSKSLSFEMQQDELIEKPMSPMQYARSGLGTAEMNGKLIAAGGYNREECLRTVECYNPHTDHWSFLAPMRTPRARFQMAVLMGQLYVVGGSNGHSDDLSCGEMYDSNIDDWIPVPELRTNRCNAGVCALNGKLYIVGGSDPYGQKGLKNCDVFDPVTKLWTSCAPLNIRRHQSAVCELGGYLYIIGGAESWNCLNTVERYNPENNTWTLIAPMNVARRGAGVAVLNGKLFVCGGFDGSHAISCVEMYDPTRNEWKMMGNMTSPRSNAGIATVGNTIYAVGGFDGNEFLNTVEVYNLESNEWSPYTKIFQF

[2] = target: T1, NS1-binding protein (NS1-BP) (human (endogenous in HeLa and A549)); remark: listed apart in the source

With “heterogeneous nuclear ribonucleoprotein K (hnRNP K) (from UniProt P61978 1-463)” the binding [1] was “binds” and the binding [2] was “binds”.

B1: heterogeneous nuclear ribonucleoprotein M (hnRNP M) (protein, UniProt P52272 1-730)
chain: MAAGVEAAAEVAATEIKMEEESGAPGVPSGNGAPGPKGEGERPAQNEKRKEKNIKRGGNRFEPYANPTKRYRAFITNIPFDVKWQSLKDLVKEKVGEVTYVELLMDAEGKSRGCAVVEFKMEESMKKAAEVLNKHSLSGRPLKVKEDPDGEHARRAMQKVMATTGGMGMGPGGPGMITIPPSILNNPNIPNEIIHALQAGRLGSTVFVANLDYKVGWKKLKEVFSMAGVVVRADILEDKDGKSRGIGTVTFEQSIEAVQAISMFNGQLLFDRPMHVKMDERALPKGDFFPPERPQQLPHGLGGIGMGLGPGGQPIDANHLNKGIGMGNIGPAGMGMEGIGFGINKMGGMEGPFGGGMENMGRFGSGMNMGRINEILSNALKRGEIIAKQGGGGGGGSVPGIERMGPGIDRLGGAGMERMGAGLGHGMDRVGSEIERMGLVMDRMGSVERMGSGIERMGPLGLDHMASSIERMGQTMERIGSGVERMGAGMGFGLERMAAPIDRVGQTIERMGSGVERMGPAIERMGLSMERMVPAGMGAGLERMGPVMDRMATGLERMGANNLERMGLERMGANSLERMGLERMGANSLERMGPAMGPALGAGIERMGLAMGGGGGASFDRAIEMERGNFGGSFAGSFGGAGGHAPGVARKACQIFVRNLPFDFTWKMLKDKFNECGHVLYADIKMENGKSKGCGVVKFESPEVAERACRMMNGMKLSGREIDVRIDRNA
B1 was tested, and the binding [1] was “binds” and the binding [2] was “binds”.
